Experimental data: PubChem BioAssay AID686943 (Drosophila RNAi Screening Center, 2013)
Assay: 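Fly genes whose loss alters ERK activation after insulin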 (primary screen). Cells: Drosophila S2R+ haemocyte-like cells expressing YFP-tagged ERK (Rolled). Knock-down reagent: long dsRNA against Drosophila genes. Challenge: insulin stimulation versus unstimulated cells; dose and duration not given. Measurement: 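Per-plate z-scores of phospho-ERK immunostaining normalised to YFP-tagged ERK, measured with and without insulin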. Direction: replicate 1, z-score of dpERK with insulin and replicate 2, z-score of dpERK with insulin: higher = more active ERK per ERK-YFP after insulin; replicate 1, z-score of dpERK under basal conditions: higher = more basal active ERK per ERK-YFP; replicate 1, z-score of ERK-YFP with insulin: higher = more YFP-tagged ERK signal.
The deposit covers about 23,000 reagents; below is a random part of those with a known target gene and a result. 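Extra replicates exist only for a retested subset of genes; insulin dose and duration not given; both raised and lowered dpERK matter.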 The numbers tell different reagents against one gene apart. Names joined by + are all predicted targets of the reagent. Not given: the amount of reagent, the time to read-out.

gene knocked down | dsRNA no. | replicate 1, z-score of dpERK with insulin | replicate 2, z-score of dpERK with insulin | replicate 1, z-score of dpERK under basal conditions | replicate 1, z-score of ERK-YFP with insulin
CG7560 | 1 | 0.14 | 0.05 | -1.03 | 0.12
CG14770 | 1 | 0.06 | 1.15 | -0.29 | 1.62
Tsp96F (Tetraspanin 96F) | 1 | 0.95 | 0.12 | -0.1 | -0.83
CG3655 | 1 | 0.51 | 0.35 | 0.96 | 0.15
CG3655 | 2 | 0.77 | -0.16 | 0.51 | -0.13
CG3655 | 3 | -0.1 | 0.9 | -0.32 | -0.35
CG3655 | 4 | -3.89 | -0.55 | -0.05 | 1.03
CG31551 | 1 | 0.44 | -0.28 | -0.1 | 0.67
CG31551 | 2 | -0.13 | -3.65 | 1.65 | -0.61
Pdf (Pigment-dispersing factor) | 1 | -0.13 | -0.1 | 1.35 | -0.61
spz3 (spatzle 3) | 1 | 0.4 | 0.15 | 0.13 | 0.27
spz3 (spatzle 3) | 2 | 1.36 | 0.37 | 0.53 | -0.47
Rtnl2 | 1 | 0.75 | 0.65 | -0.21 | -0.86
Rtnl2 | 2 | 0.54 | 0.4 | -0.73 | -1.55
Sfxn1-3 (Sideroflexin 1/3) | 1 | -0.96 | -0.36 | -0.19 | 1.33
COX8 (Cytochrome c oxidase subunit 8) | 1 | -0.63 | -1.58 | -1.43 | 3.4
Urod (Uroporphyrinogen decarboxylase) | 1 | -0.21 | -0.36 | -1.03 | 0.2
Gp210 (Glycoprotein 210 kDa) | 1 | 0.27 | 1.3 | -0.69 | -0.17
Gp210 (Glycoprotein 210 kDa) | 2 | 0.7 | 0.04 | -0.23 | 0.34
bin (biniou) | 1 | -0.23 | -0.14 | 0.48 | 0.42
Obp83b (Odorant-binding protein 83b) | 1 | 0.6 | 0.49 | 0.17 | 0.14
CG1638 | 1 | -0.61 | 0 | -0.79 | 0.47
CheA86a (Chemosensory protein A 86a) | 1 | 0.01 | -0.88 | 0.63 | 0.18
CG32320 | 1 | 0.48 | 0.57 | 0.1 | -0.56
CG42818 | 1 | 0.76 | 0.49 | -0.42 | 0
Galphao (G protein alpha subunit o) | 1 | 0.75 | 0.45 | 0.52 | 0.27
CG30323 | 1 | 0.53 | 0.07 | -0.03 | -0.06
Torsin | 1 | -0.46 | -0.91 | 0.26 | 0.42
Sema1b (Semaphorin 1b) | 1 | 0.66 | -1.1 | -0.42 | 0.98
Pif1A + Pif1B | 1 | 0.27 | 0.32 | -1.86 | 0.77
Pif1A + Pif1B | 2 | 0.89 | -0.03 | 1.94 | -0.94
Pif1A + Pif1B | 3 | 1.12 | -0.41 | -0.52 | -0.35
CG3544 | 1 | -0.29 | -0.31 | -0.42 | 0.27
CG34325 | 1 | 0.18 | -0.5 | -0.22 | 0.18
CG34325 | 2 | -0.11 | 0.17 | -0.23 | -0.18
AstA-R2 (Allatostatin A receptor 2) | 1 | 0 | -0.19 | -0.28 | 0.04
mRpL3 (mitochondrial ribosomal protein L3) | 1 | -0.15 | -0.25 | 0.16 | 0.82

Part of the list above, reformatted:
CG3544
- replicate 1, z-score of dpERK with insulin: -0.29
- replicate 2, z-score of dpERK with insulin: -0.31
- replicate 1, z-score of dpERK under basal conditions: -0.42
- replicate 1, z-score of ERK-YFP with insulin: 0.27

CG34325 #1
- replicate 1, z-score of dpERK with insulin: 0.18
- replicate 2, z-score of dpERK with insulin: -0.5
- replicate 1, z-score of dpERK under basal conditions: -0.22
- replicate 1, z-score of ERK-YFP with insulin: 0.18

CG34325 #2
- replicate 1, z-score of dpERK with insulin: -0.11
- replicate 2, z-score of dpERK with insulin: 0.17
- replicate 1, z-score of dpERK under basal conditions: -0.23
- replicate 1, z-score of ERK-YFP with insulin: -0.18

AstA-R2 (Allatostatin A receptor 2)
- replicate 1, z-score of dpERK with insulin: 0
- replicate 2, z-score of dpERK with insulin: -0.19
- replicate 1, z-score of dpERK under basal conditions: -0.28
- replicate 1, z-score of ERK-YFP with insulin: 0.04

mRpL3 (mitochondrial ribosomal protein L3)
- replicate 1, z-score of dpERK with insulin: -0.15
- replicate 2, z-score of dpERK with insulin: -0.25
- replicate 1, z-score of dpERK under basal conditions: 0.16
- replicate 1, z-score of ERK-YFP with insulin: 0.82

Further records follow:
gene knocked down | dsRNA no. | replicate 1, z-score of dpERK with insulin | replicate 2, z-score of dpERK with insulin | replicate 1, z-score of dpERK under basal conditions | replicate 1, z-score of ERK-YFP with insulin
Grip71 | 1 | 2.05 | 0.29 | 3.64 | -0.87
hale (hale-bopp) | 1 | 0.32 | -0.41 | -1.1 | 0.01
CG5180 | 1 | 1.02 | 0.68 | 0.09 | -0.88
CG14984 | 1 | 0.96 | 0.77 | -0.18 | 0.58
Ugt37E1 (UDP-glycosyltransferase family 37 member E1) | 1 | 0.34 | 0.55 | -0.01 | 0.15
pasha (partner of drosha) | 1 | -0.34 | 0.6 | -0.16 | -0.5
sesB (stress-sensitive B) | 1 | -0.11 | 0.11 | -0.09 | 0.53
CG11458 | 1 | 1.44 | 1.58 | 0.25 | 0.47
Reg-5 (Rhythmically expressed gene 5) | 1 | 0.8 | -0.04 | 0.38 | -1.3
Pfdn1 (Prefoldin 1) | 1 | -0.82 | 0.09 | 1.34 | 0.79
Lcp65Aa | 1 | 0.03 | -0.19 | 0.13 | 0.07
mRpS10 (mitochondrial ribosomal protein S10) | 1 | 0.33 | 0.47 | 0.54 | 0.57
ACOX1 (acyl-CoA oxidase 1) | 1 | -0.63 | -0.06 | 1.19 | 1.31
CG33467 | 1 | 1 | -0.2 | 1.2 | 0.2
CG33467 | 2 | 0.02 | 0.51 | -0.72 | 2.11
CG8858 | 1 | 0.81 | 0.01 | 1.66 | -0.1
Sugb (Sugar baby) | 1 | -0.15 | 0.02 | 0.45 | -0.14
Tk (Tachykinin) | 1 | 0.94 | 1.14 | 1.45 | -0.54
Tk (Tachykinin) | 2 | -0.13 | 0.1 | 1.69 | 0.21
CG43104 (retired record) | 1 | -0.17 | 0.13 | 0.51 | 0.41
